{"sequences": {"note": "Chains of the proteins cited; added tags and fusions are not shown. Lines headed by an entry give the natural chain unless they say otherwise; changes in a name come on top.", "UniProt Q13451": "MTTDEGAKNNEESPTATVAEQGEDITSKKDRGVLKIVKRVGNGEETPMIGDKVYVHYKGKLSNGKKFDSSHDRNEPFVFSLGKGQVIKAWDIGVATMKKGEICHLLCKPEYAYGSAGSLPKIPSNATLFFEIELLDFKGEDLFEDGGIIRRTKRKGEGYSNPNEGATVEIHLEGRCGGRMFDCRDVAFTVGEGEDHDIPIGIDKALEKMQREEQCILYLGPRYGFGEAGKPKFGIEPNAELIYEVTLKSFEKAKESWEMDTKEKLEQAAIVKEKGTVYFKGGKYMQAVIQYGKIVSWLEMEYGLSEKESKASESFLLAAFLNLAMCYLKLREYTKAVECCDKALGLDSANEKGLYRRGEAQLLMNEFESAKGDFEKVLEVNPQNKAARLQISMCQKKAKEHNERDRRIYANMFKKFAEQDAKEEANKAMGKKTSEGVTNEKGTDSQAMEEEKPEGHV", "UniProt P22570": "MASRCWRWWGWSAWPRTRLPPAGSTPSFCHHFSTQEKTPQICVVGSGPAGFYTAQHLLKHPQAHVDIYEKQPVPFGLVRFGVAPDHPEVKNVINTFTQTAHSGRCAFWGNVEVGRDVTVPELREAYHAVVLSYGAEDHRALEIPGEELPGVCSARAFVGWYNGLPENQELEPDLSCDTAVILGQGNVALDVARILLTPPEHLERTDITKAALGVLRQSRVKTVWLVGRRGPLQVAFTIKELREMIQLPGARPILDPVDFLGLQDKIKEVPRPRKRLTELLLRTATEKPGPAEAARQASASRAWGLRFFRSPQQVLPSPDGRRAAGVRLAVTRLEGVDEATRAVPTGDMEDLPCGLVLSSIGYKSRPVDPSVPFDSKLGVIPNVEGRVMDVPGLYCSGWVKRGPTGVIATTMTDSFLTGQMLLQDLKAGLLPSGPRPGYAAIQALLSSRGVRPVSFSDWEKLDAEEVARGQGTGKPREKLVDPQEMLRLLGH", "UniProt O75369, whole entry, looked up": "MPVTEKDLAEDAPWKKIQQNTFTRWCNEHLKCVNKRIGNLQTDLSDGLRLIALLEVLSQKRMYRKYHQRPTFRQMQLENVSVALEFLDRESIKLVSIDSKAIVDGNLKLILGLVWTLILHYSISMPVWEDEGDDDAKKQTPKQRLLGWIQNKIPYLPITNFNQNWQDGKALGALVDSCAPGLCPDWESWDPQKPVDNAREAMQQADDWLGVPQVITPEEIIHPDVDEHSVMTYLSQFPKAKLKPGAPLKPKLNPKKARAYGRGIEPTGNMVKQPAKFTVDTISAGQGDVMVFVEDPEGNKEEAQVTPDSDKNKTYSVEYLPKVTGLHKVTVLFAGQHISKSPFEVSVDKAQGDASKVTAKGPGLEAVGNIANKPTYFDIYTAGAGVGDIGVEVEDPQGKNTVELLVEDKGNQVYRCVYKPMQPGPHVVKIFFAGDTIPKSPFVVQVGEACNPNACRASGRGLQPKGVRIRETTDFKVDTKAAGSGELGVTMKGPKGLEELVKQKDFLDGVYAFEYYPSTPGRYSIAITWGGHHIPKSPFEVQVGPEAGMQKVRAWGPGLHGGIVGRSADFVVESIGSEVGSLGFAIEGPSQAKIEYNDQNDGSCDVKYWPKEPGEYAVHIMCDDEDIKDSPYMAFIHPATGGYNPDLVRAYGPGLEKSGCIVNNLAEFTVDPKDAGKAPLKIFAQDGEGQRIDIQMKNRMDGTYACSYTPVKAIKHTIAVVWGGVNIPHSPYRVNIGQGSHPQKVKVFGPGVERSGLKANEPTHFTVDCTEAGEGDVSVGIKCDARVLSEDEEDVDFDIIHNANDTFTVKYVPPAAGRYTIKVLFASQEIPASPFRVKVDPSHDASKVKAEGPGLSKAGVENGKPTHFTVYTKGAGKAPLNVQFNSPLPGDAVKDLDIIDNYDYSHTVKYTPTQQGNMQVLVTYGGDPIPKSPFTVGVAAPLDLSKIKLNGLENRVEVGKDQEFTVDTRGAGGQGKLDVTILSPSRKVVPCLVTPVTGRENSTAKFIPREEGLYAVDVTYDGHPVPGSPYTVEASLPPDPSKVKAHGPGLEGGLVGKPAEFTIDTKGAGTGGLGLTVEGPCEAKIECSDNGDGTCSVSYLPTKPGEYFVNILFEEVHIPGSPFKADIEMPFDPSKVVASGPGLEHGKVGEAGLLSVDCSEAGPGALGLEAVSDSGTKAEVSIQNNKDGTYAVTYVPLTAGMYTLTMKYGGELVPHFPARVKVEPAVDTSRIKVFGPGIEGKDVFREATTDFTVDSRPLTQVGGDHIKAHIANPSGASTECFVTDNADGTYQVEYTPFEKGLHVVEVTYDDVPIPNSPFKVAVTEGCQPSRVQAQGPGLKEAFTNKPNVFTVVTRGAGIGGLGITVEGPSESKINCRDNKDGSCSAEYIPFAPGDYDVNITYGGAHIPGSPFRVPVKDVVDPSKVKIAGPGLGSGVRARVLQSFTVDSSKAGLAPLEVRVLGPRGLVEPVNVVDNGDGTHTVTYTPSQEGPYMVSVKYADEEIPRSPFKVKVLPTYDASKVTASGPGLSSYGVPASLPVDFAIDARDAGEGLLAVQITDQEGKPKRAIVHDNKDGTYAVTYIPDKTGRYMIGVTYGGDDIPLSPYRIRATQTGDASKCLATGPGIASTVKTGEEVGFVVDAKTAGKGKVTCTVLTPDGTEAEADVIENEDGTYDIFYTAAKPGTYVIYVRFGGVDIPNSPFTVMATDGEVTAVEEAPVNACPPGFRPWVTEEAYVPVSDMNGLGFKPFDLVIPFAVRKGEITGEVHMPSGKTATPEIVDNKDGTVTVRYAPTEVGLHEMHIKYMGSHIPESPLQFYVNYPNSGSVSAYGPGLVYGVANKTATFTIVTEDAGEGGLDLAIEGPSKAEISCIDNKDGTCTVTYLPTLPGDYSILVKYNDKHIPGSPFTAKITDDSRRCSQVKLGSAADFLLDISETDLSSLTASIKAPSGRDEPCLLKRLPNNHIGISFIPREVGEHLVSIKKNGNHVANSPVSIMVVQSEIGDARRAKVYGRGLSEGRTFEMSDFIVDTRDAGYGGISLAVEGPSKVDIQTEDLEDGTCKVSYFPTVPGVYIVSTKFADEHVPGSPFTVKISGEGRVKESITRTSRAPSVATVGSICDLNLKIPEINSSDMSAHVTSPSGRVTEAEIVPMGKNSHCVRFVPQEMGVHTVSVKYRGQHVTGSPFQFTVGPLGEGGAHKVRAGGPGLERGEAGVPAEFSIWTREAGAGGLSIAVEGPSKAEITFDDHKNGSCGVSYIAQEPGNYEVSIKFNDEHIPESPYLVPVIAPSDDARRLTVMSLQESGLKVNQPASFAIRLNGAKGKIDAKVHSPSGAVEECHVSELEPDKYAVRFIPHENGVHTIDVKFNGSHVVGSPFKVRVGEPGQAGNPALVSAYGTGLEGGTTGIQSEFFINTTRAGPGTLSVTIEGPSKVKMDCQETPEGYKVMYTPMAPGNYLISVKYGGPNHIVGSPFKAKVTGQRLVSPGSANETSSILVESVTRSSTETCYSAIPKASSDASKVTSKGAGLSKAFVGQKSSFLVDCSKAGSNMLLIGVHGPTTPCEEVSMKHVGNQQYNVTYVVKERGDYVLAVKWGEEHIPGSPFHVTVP", "UniProt Q96CD0": "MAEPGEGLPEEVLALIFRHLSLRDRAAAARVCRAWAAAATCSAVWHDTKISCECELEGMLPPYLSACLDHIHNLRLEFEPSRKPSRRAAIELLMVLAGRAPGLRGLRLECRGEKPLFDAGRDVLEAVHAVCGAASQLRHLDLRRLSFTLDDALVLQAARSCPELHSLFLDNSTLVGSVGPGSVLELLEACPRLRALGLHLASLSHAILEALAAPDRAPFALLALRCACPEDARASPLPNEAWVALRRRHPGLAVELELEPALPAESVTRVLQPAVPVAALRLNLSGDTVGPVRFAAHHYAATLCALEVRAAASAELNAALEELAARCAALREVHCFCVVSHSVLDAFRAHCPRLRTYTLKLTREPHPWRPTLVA", "UniProt Q86UX7, whole entry, looked up": "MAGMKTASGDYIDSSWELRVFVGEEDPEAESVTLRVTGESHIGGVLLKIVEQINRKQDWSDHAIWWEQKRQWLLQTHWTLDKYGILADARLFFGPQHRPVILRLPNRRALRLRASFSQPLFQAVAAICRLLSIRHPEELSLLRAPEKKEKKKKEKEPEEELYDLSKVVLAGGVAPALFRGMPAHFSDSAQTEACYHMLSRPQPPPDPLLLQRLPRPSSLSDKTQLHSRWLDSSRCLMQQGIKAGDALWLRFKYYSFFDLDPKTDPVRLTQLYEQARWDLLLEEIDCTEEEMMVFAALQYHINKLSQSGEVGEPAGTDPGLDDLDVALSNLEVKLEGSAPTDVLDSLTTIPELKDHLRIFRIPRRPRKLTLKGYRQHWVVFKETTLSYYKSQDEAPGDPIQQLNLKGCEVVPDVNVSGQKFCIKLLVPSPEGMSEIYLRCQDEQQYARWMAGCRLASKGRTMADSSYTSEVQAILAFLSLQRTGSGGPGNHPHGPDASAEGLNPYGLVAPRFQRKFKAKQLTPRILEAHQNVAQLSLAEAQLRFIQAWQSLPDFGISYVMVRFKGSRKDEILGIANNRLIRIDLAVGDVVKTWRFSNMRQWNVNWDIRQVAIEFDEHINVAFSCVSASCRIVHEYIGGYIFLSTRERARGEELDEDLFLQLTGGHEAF", "UniProt Q5T0N5": "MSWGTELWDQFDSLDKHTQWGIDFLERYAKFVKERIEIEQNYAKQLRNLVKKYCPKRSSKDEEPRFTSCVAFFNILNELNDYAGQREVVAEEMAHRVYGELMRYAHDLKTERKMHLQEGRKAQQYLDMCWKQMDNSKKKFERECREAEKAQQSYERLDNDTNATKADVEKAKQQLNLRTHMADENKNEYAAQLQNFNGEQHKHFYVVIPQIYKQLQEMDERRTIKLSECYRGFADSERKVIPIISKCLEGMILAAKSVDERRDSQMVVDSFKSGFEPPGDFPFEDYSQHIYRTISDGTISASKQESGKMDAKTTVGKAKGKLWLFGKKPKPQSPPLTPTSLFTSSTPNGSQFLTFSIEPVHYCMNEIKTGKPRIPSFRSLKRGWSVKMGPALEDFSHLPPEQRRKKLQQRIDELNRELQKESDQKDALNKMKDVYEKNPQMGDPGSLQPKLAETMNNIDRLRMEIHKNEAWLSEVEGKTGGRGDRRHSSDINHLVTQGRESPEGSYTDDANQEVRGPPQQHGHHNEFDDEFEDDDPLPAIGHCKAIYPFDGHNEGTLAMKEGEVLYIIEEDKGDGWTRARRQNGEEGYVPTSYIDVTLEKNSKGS", "UniProt Q9UK99": "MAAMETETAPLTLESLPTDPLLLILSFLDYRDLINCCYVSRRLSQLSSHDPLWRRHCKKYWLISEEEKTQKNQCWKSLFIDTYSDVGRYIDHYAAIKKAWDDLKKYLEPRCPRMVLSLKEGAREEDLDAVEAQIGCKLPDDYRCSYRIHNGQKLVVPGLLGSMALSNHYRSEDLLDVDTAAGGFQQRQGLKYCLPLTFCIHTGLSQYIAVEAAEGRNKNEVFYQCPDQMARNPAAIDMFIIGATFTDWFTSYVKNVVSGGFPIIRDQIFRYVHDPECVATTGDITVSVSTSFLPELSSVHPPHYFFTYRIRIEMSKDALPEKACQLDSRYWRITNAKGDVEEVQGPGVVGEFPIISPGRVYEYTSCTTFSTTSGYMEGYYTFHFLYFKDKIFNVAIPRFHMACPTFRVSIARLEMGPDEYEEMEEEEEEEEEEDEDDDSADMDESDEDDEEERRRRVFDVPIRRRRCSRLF", "UniProt Q9UHY8": "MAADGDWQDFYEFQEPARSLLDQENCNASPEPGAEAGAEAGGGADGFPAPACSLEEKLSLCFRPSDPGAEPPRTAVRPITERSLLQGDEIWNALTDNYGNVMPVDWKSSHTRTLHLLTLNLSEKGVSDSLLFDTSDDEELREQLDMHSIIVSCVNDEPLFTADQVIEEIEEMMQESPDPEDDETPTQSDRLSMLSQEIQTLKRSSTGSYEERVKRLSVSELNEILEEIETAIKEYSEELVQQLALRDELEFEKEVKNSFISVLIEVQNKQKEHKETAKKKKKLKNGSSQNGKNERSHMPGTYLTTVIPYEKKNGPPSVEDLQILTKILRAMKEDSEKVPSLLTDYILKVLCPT", "UniProt Q8NFG4": "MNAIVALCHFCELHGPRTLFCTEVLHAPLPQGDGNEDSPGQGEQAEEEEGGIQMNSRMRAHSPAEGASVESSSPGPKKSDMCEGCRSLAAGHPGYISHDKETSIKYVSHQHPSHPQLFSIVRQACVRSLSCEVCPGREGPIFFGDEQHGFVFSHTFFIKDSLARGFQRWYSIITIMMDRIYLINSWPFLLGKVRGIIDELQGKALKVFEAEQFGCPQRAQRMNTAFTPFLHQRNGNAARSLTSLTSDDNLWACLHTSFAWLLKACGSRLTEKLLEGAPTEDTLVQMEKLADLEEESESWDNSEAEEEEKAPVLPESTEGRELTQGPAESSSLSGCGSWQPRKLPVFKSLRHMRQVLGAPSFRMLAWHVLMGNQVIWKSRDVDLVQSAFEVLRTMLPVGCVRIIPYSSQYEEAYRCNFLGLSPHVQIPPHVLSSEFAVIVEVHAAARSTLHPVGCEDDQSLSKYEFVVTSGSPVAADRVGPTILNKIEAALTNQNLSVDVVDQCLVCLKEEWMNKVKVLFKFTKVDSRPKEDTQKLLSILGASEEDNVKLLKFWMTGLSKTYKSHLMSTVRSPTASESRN"}, "source": "the supplement of paper PMC10849652", "note": "The list shows a part of the results."}
{"compound": "Cc1cc(Nc2cc(N3CCN(C)CC3)nc(Sc3ccc(NC(=O)C4CC4)cc3)n2)n[nH]1 [tozasertib]", "experiment": "log2 fold change, soluble protein after heating vs DMSO (PISA); higher = thermal stabilisation; K562 lysate, 10 uM; active = over 0.2 and 3.5 SD of the protein, either way, in both replicates (recomputed)", "summary_of_the_method": "(§1)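 To prepare the extract, K562 pellets were dounce-homogenised in PBS pH 7.4 with 1 mM MgCl2, giving crude material at 1 mg/mL protein. This was treated with 10 μM compound for 30 min, then heated in aliquots for 3 min over 48°C-58°C before pooling and addition of NP-40 to 0.5% at 4°C. Centrifugation at 21,000xg for 90 min left soluble protein in the supernatant, which TMTpro 16plex LC-MS/MS quantified with equalised channel sums. Results are log-two fold changes in thermal stability compared with solvent controls, from duplicates.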"}
{"target": "FBXL18 isoform 4 (UniProt Q96ME1)", "log2 fold change": "inactive: 0"}
{"target": "FKBP5 (UniProt Q13451)", "log2 fold change": "inactive: -0.001"}
{"target": "FDXR isoform 7 (UniProt P22570)", "log2 fold change": "inactive: -0.008"}
{"target": "FLNB isoform 8 (UniProt O75369)", "log2 fold change": "inactive: -0.006"}
{"target": "FBXL8 (UniProt Q96CD0)", "log2 fold change": "inactive: 0.009"}
{"target": "FERMT3 (UniProt Q86UX7)", "log2 fold change": "inactive: 0.007"}
{"target": "FNBP1L (UniProt Q5T0N5)", "log2 fold change": "inactive: -0.003"}
{"target": "FBXO3 (UniProt Q9UK99)", "log2 fold change": "inactive: -0.068"}
{"target": "FEZ2 isoform 2 (UniProt Q9UHY8)", "log2 fold change": "inactive: -0.003"}
{"target": "FLCN (UniProt Q8NFG4)", "log2 fold change": "inactive: 0.075"}
{"compound": "Cc1ccc(-n2nc(C(C)(C)C)cc2NC(=O)Nc2ccc(OCCN3CCOCC3)c3ccccc23)cc1 [doramapimod]", "experiment": "log2 fold change, soluble protein after heating vs DMSO (PISA); higher = thermal stabilisation; K562 lysate, 10 uM; active = over 0.2 and 3.5 SD of the protein, either way, in both replicates (recomputed)", "summary_of_the_method": "as §1"}
{"target": "FKBPL (UniProt Q9UIM3)", "log2 fold change": "inactive: 0.067"}
{"target": "FAR1 (UniProt Q8WVX9)", "log2 fold change": "inactive: 0.041"}
{"target": "FLII (UniProt Q13045)", "log2 fold change": "inactive: 0.03"}
{"target": "FAU (UniProt E9PR30)", "log2 fold change": "inactive: 0.071"}
{"target": "FGFR1OP (UniProt O95684)", "log2 fold change": "inactive: 0"}
{"target": "FNTB (UniProt P49356)", "log2 fold change": "inactive: -0.053"}
{"target": "FBXO6 (UniProt Q9NRD1)", "log2 fold change": "inactive: 0.001"}
{"target": "FGD6 (UniProt Q6ZV73)", "log2 fold change": "inactive: -0.119"}
{"target": "FLAD1 (UniProt Q8NFF5)", "log2 fold change": "inactive: -0.02"}
{"target": "FLNC (UniProt Q14315)", "log2 fold change": "inactive: -0.017"}
{"target": "FAM8A1 (UniProt Q9UBU6)", "log2 fold change": "inactive: 0.015"}
{"target": "FBXW9 (UniProt Q5XUX1)", "log2 fold change": "inactive: -0.051"}
{"target": "FAM98C (UniProt Q17RN3)", "log2 fold change": "inactive: -0.013"}
{"target": "FIBP (UniProt O43427)", "log2 fold change": "inactive: -0.038"}
{"target": "FBXL12 (UniProt Q9NXK8)", "log2 fold change": "inactive: -0.026"}
{"target": "FBLL1 (UniProt A6NHQ2)", "log2 fold change": "inactive: -0.013"}
{"target": "FN1 (UniProt P02751)", "log2 fold change": "inactive: 0.007"}
{"target": "FECH isoform 2 (UniProt P22830)", "log2 fold change": "inactive: -0.015"}
{"target": "FAM98A (UniProt Q8NCA5)", "log2 fold change": "inactive: -0.015"}
{"target": "FASN (UniProt P49327)", "log2 fold change": "inactive: 0.025"}
{"target": "FKBP2 (UniProt P26885)", "log2 fold change": "inactive: 0.028"}
{"target": "FMNL1 isoform 3 (UniProt O95466)", "log2 fold change": "inactive: 0.048"}
{"target": "FKBP8 isoform 2 (UniProt Q14318)", "log2 fold change": "inactive: 0.064"}
{"target": "FBXL18 isoform 4 (UniProt Q96ME1)", "log2 fold change": "inactive: 0.021"}
{"target": "FKBP5 (UniProt Q13451)", "log2 fold change": "inactive: 0.017"}
{"target": "FDXR isoform 7 (UniProt P22570)", "log2 fold change": "inactive: 0.049"}
{"target": "FLNB isoform 8 (UniProt O75369)", "log2 fold change": "inactive: -0.002"}
{"target": "FBXL8 (UniProt Q96CD0)", "log2 fold change": "inactive: -0.005"}
{"target": "FERMT3 (UniProt Q86UX7)", "log2 fold change": "inactive: -0.013"}
{"target": "FNBP1L (UniProt Q5T0N5)", "log2 fold change": "inactive: 0.113"}
{"target": "FBXO3 (UniProt Q9UK99)", "log2 fold change": "inactive: -0.038"}
{"target": "FEZ2 isoform 2 (UniProt Q9UHY8)", "log2 fold change": "inactive: 0.022"}
{"target": "FLCN (UniProt Q8NFG4)", "log2 fold change": "inactive: 0.061"}
{"compound": "Cc1ccc(NC(=O)c2ccc(CN3CC[C@H](N(C)C)C3)c(C(F)(F)F)c2)cc1Nc1nccc(-c2cncnc2)n1 [bafetinib]", "experiment": "log2 fold change, soluble protein after heating vs DMSO (PISA); higher = thermal stabilisation; K562 lysate, 10 uM; active = over 0.2 and 3.5 SD of the protein, either way, in both replicates (recomputed)", "summary_of_the_method": "as §1"}
{"target": "FKBPL (UniProt Q9UIM3)", "log2 fold change": "inactive: -0.012"}
{"target": "FAR1 (UniProt Q8WVX9)", "log2 fold change": "inactive: -0.136"}
{"target": "FLII (UniProt Q13045)", "log2 fold change": "inactive: -0.032"}
{"target": "FAU (UniProt E9PR30)", "log2 fold change": "inactive: -0.019"}
{"target": "FGFR1OP (UniProt O95684)", "log2 fold change": "inactive: -0.031"}
{"target": "FNTB (UniProt P49356)", "log2 fold change": "inactive: -0.013"}
{"target": "FBXO6 (UniProt Q9NRD1)", "log2 fold change": "inactive: -0.008"}
{"target": "FGD6 (UniProt Q6ZV73)", "log2 fold change": "inactive: 0.254"}
{"target": "FLAD1 (UniProt Q8NFF5)", "log2 fold change": "inactive: -0.052"}
{"target": "FLNC (UniProt Q14315)", "log2 fold change": "inactive: 0.026"}
{"target": "FAM8A1 (UniProt Q9UBU6)", "log2 fold change": "inactive: 0.055"}
{"target": "FBXW9 (UniProt Q5XUX1)", "log2 fold change": "inactive: -0.054"}
{"target": "FAM98C (UniProt Q17RN3)", "log2 fold change": "inactive: -0.101"}
{"target": "FIBP (UniProt O43427)", "log2 fold change": "inactive: -0.025"}
{"target": "FBXL12 (UniProt Q9NXK8)", "log2 fold change": "inactive: -0.003"}
{"target": "FBLL1 (UniProt A6NHQ2)", "log2 fold change": "inactive: -0.075"}
{"target": "FN1 (UniProt P02751)", "log2 fold change": "inactive: -0.036"}
{"target": "FECH isoform 2 (UniProt P22830)", "log2 fold change": "inactive: 0.557"}
{"target": "FAM98A (UniProt Q8NCA5)", "log2 fold change": "inactive: 0.012"}
{"target": "FASN (UniProt P49327)", "log2 fold change": "inactive: 0"}
{"target": "FKBP2 (UniProt P26885)", "log2 fold change": "inactive: 0.161"}
{"target": "FMNL1 isoform 3 (UniProt O95466)", "log2 fold change": "inactive: -0.055"}
{"target": "FKBP8 isoform 2 (UniProt Q14318)", "log2 fold change": "inactive: -0.07"}
{"target": "FBXL18 isoform 4 (UniProt Q96ME1)", "log2 fold change": "inactive: 0.027"}
{"target": "FKBP5 (UniProt Q13451)", "log2 fold change": "inactive: -0.028"}
{"target": "FDXR isoform 7 (UniProt P22570)", "log2 fold change": "inactive: -0.055"}
{"target": "FLNB isoform 8 (UniProt O75369)", "log2 fold change": "inactive: 0.01"}
{"target": "FBXL8 (UniProt Q96CD0)", "log2 fold change": "inactive: -0.134"}
{"target": "FERMT3 (UniProt Q86UX7)", "log2 fold change": "inactive: -0.045"}
{"target": "FNBP1L (UniProt Q5T0N5)", "log2 fold change": "inactive: -0.089"}
{"target": "FBXO3 (UniProt Q9UK99)", "log2 fold change": "inactive: -0.003"}
{"target": "FEZ2 isoform 2 (UniProt Q9UHY8)", "log2 fold change": "inactive: 0.056"}
{"target": "FLCN (UniProt Q8NFG4)", "log2 fold change": "inactive: 0.026"}
